# The list shows a part of the results. Further columns of the screen follow, without active or inactive calls. The list favours compounds with an active or inconclusive main result. Potencies come from curve fits of mixed quality, noted in brackets.
# Test: qHTS Assay for Lipid Storage Modulators in Drosophila S3 Cells;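 as to cell number change: cells counted by Cell Tracker Red CMTPX staining in the red channel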
# Settings: BODIPY lipid droplet fluorescence, 18-24 h; for cell number change: measured here: cell count max response, cells fed with added oleic acid
# In short: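 Laser-scanning cytometry quantifies lipid droplet accumulation (500–530 nm total intensity; droplet/cell object ratio) in oleic acid-fed (400 uM added) Drosophila S3 cells treated with a concentration series. 20 uM Triacsin C defined 100% inhibition.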
# [1] = measured here: lipid fluorescence (Fed channel) AC50, cells fed with added oleic acid
# [2] = measured here: cell number channel AC50, cells fed with added oleic acid
Compound,cell number change [%],AC50 [1],AC50 [2]
CC(C)[C@H](NC(=O)Nc1cccc(C(F)(F)F)c1)C(=O)O,0.651,"820 nM [falling, full curve, poor fit]",
CCN(CC)C(=O)c1ccc(NS(=O)(=O)c2ccc3[nH]c(=O)[nH]c3c2)cc1,0.54,"29100 nM [falling, single point]",
O=C(CSc1nnc(CNC(=O)c2c(F)cccc2F)o1)NCc1ccccc1Cl,-74.3,"3550 nM [falling, partial curve]","11200 nM [falling, partial curve]"
O=C(Nc1ccc(S(=O)(=O)Nc2ncccn2)cc1)C1CC(=O)N(c2ccc(Cl)cc2)C1 (configuration not stated),-23.1,"116 nM [rising, single point]",
COc1cccc(-n2c(SCC(=O)Nc3cc(C)on3)nc3ccccc3c2=O)c1,-4.07,,
O=S(=O)(c1ccccc1)N1CCN(c2ccccc2)CC1,-9.34,,
CCSc1nnc2nc(C)cc(C)n12,-27.5,"16400 nM [falling, partial curve]",
O=C(O)c1ccc(Cl)c(S(=O)(=O)NC(Cc2ccccc2)C(=O)O)c1 (configuration not stated),-19.2,"6510 nM [falling, single point]",
CC(C)c1nnc(NC(=O)CCCCCN2C(=O)C3C4C=CC(C4)C3C2=O)s1 (configuration not stated),1.62,"2060 nM [falling, partial curve]",
Cc1ccc(N2C(=O)C3C4C=CC(C4)C3C2=O)cc1 (configuration not stated),-4.46,"130 nM [falling, full curve, poor fit]",
CCN1C(=O)/C(=C2\SC(=S)N(CCCOC)C2=O)c2ccccc21,21.5,"29100 nM [rising, partial curve, poor fit]",
CCc1nnc(NC(=O)c2ccc3c(c2)C(=O)N(C(C)(C)C)C3=O)s1,-0.424,,
CC1=C(C(=O)Nc2ccccc2)C(c2ccc(C(C)C)cc2)N2C(=O)CSC2=N1 (configuration not stated),-27.5,"6510 nM [rising, single point]",
CCC(=O)Nc1nn(CC(C)C)c2nc3ccc(C)cc3cc12,22.4,,
O=C(CN1CCCCCC1)N/N=C/c1ccc(Cl)c(Cl)c1,-13.9,,
Cc1c(Cl)cccc1NC(=O)NC1CCCCC1,16.9,"4110 nM [rising, full curve]","231 nM [falling, full curve, poor fit]"
CCOc1ccccc1C(=O)N(Cc1sccc1C)C1CCS(=O)(=O)C1 (configuration not stated),-46.9,"20000 nM [falling, partial curve]","12600 nM [falling, partial curve]"
Cc1c(C(=O)NCc2ccco2)oc2c(Cl)cccc12,-15.2,"580 nM [rising, single point]",
CCCn1c(NCc2cccc(OC)c2OC)nc2ccccc21,10.5,,"2060 nM [rising, single point]"
COc1cc(S(=O)(=O)N(C)C2CCCCC2)c(C)cc1C,,"366 nM [falling, full curve]",

Compound,cell number change [%],AC50 [1],AC50 [2]
O=C(CNCc1ccco1)Nc1cc(S(=O)(=O)N2CCOCC2)ccc1N1CCCC1,21,"517 nM [rising, full curve, poor fit]",
O=C1CCCC2=C1C(Cc1ccccc1)C1=C(CCCC1=O)O2,-73.6,"4110 nM [falling, full curve, poor fit]","10300 nM [falling, partial curve]"
O=C(Nn1cnnc1)c1ccccc1CCc1ccccc1,7.56,"3260 nM [rising, single point]",
O=C(COC(=O)/C=C/c1ccc(Cl)cc1)NC1CCCCCC1,25,"5.17 nM [falling, full curve, poor fit]",
Nc1nc(SCC(=O)NC2CCCC2)[nH]c(=O)c1-c1ccccc1,-71.3,,"16400 nM [falling, single point]"
COc1ccc(/C=C/C(=O)O)cc1S(=O)(=O)N1CCCc2ccccc21,-2.88,"130 nM [falling, full curve]",
COc1cc(OC)c2c(-c3ccccc3)cc(=O)oc2c1C(CC(=O)N1CCN(c2ccccc2)CC1)c1ccc2c(c1)OCO2 (configuration not stated),16.9,"580 nM [rising, full curve, poor fit]",
Cc1cc(OCc2nc(-c3cccs3)no2)cc(C)c1Cl,44.1,"2590 nM [rising, full curve]","2310 nM [rising, full curve]"
C/C(=N\n1cnnc1)c1ccc(C#N)cc1,-34.9,"1030 nM [falling, full curve]","920 nM [falling, full curve]"
CCCCn1c(N)c(N(CCC(C)C)C(=O)C2CC(=O)N(c3ccc(OC)cc3OC)C2)c(=O)[nH]c1=O (configuration not stated),-9.5,,
O=C(Nc1ccccc1Cl)c1ccc([N+](=O)[O-])o1,-29.1,,
O=C(N/N=C/c1ccc(Br)o1)c1cccnc1,37.7,"11600 nM [rising, partial curve, poor fit]","29100 nM [rising, single point]"
CCCn1cc(NC(=O)C2CC(c3cccc(Br)c3)=NO2)cn1 (configuration not stated),-0.877,"29100 nM [falling, single point]",
CCOC(=O)C1CCN(C/C=C/c2ccccc2)CC1,3.04,,
O=c1c(-c2ccccc2)cnc2n1CCS2,-10.8,,
Cc1ccc(S(=O)CCNC(=O)Cc2ccccc2)cc1 (configuration not stated),-14.9,"326 nM [falling, full curve, poor fit]","820 nM [falling, full curve, poor fit]"
COc1cccc(NC(=S)N2CCN(Cc3ccccc3)CC2)c1,7.46,"2060 nM [rising, partial curve, poor fit]",
COc1ccc(-c2cc(C(F)(F)F)c3c(n2)sc2c(O)cc(=O)[nH]c23)c(OC)c1,,"651 nM [rising, single point]",
Cc1cccc(C)c1NC(=O)CC1SC2=NCCN2C1=O (configuration not stated),-14.8,,"65.1 nM [falling, full curve, poor fit]"
CCn1ncc(C2=NOC(C(=O)NCC(C)C)C2)c1C (configuration not stated),-55,,"29100 nM [falling, single point]"

# Some of the entries above, set out differently:
Compound	cell number change [%]	AC50 [1]	AC50 [2]
O=C(COC(=O)/C=C/c1ccc(Cl)cc1)NC1CCCCCC1	25	5.17 nM [falling, full curve, poor fit]	
Nc1nc(SCC(=O)NC2CCCC2)[nH]c(=O)c1-c1ccccc1	-71.3		16400 nM [falling, single point]
COc1ccc(/C=C/C(=O)O)cc1S(=O)(=O)N1CCCc2ccccc21	-2.88	130 nM [falling, full curve]	

# Source: PubChem BioAssay AID2685 (National Center for Advancing Translational Sciences (NCATS), 2010)
